Source: doi:10.1101/059964

Chains of the proteins cited; added tags and fusions are not shown.
UniProt P25490: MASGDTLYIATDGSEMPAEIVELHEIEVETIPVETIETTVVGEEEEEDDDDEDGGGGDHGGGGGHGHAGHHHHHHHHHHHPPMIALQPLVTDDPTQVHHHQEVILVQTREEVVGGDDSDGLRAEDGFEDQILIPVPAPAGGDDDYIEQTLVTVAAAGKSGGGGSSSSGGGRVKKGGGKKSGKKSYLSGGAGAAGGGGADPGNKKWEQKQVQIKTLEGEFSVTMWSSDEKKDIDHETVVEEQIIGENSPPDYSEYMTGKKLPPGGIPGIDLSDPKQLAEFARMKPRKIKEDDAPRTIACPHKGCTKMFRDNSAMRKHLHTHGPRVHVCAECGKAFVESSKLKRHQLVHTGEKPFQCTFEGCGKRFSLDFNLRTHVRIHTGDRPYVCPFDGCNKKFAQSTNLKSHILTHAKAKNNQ
UniProt Q9HC52: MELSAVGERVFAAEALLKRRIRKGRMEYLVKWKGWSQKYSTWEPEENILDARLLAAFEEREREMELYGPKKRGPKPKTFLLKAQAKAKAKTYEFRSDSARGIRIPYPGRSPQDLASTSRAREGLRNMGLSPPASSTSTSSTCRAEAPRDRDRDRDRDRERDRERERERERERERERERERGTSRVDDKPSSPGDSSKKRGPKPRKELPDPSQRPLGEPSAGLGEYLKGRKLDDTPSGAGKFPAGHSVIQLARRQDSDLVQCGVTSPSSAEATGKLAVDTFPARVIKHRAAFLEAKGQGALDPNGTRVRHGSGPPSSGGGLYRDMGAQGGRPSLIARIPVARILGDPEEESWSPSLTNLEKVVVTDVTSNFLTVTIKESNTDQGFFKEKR
UniProt P68400: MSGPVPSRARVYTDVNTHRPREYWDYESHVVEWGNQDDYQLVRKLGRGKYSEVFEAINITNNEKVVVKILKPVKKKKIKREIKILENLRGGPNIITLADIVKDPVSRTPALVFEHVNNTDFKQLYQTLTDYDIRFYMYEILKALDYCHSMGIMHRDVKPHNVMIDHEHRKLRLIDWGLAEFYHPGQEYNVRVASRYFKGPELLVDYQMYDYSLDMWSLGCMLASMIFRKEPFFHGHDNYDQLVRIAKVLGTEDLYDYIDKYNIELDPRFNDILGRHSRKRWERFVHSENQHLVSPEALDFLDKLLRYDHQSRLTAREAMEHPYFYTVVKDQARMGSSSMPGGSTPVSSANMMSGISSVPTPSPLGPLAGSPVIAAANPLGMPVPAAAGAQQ
UniProt Q86SE9: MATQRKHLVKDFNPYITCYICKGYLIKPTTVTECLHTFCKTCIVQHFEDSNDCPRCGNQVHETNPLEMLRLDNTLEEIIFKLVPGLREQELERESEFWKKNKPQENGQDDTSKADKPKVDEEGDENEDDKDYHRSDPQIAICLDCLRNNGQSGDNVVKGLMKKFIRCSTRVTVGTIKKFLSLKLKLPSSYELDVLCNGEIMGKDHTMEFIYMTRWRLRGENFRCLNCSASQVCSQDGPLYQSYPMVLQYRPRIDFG
UniProt Q06587: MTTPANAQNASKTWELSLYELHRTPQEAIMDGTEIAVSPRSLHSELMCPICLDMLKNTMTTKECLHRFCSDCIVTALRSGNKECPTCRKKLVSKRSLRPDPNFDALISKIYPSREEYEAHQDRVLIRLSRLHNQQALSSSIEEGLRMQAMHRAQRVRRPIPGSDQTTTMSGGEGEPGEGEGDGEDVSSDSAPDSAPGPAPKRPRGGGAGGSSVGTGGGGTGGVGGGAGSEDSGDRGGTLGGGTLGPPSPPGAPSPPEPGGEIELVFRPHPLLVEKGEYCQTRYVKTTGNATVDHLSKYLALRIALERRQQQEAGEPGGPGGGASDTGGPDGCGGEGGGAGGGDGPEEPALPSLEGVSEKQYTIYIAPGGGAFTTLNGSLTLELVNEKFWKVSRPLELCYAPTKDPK
UniProt Q99496: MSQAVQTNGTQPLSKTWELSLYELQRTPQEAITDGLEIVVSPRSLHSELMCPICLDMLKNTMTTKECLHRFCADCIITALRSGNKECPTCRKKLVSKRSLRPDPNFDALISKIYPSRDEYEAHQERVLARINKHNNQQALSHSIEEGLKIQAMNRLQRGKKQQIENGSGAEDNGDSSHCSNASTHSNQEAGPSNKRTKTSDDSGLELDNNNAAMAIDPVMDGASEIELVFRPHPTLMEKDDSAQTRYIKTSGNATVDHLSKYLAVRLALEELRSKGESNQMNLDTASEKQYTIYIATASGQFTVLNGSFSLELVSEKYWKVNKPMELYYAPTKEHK

Key:
Test in all cases: affinity purification with mass spectrometry
YY1 (human) = YY1 (human) (UniProt P25490)
OGT1 (human), O15294 = target: T1, OGT1 (human), O15294; details: remark: other sources report otherwise
T1 chain: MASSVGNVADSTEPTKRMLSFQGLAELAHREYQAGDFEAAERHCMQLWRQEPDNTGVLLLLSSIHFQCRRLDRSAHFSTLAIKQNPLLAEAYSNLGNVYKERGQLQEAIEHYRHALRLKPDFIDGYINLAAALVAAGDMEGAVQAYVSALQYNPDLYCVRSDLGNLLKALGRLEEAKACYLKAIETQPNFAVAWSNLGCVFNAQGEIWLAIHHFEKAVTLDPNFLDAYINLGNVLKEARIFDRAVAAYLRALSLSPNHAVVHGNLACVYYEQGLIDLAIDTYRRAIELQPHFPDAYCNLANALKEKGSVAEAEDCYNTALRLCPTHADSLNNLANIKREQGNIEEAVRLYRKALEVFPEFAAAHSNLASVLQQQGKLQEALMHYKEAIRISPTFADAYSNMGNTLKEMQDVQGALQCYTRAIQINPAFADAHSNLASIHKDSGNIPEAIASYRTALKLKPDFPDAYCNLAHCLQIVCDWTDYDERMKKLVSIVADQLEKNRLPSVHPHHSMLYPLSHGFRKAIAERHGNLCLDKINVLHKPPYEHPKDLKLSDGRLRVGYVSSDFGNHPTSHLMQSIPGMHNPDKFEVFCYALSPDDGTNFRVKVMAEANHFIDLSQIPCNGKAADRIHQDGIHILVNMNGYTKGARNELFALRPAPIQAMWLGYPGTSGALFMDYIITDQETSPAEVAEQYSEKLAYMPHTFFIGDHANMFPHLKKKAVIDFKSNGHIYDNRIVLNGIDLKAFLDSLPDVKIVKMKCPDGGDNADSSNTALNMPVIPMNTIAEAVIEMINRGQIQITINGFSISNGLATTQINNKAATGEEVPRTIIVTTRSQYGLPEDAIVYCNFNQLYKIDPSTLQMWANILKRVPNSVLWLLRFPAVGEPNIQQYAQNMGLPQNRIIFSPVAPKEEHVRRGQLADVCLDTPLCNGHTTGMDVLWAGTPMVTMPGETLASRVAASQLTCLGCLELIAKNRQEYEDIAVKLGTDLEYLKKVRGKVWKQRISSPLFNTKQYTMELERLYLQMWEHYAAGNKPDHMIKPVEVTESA

CBX4 (human) = target: T2, CBX4 (human) (UniProt O00257)
T2 sequence: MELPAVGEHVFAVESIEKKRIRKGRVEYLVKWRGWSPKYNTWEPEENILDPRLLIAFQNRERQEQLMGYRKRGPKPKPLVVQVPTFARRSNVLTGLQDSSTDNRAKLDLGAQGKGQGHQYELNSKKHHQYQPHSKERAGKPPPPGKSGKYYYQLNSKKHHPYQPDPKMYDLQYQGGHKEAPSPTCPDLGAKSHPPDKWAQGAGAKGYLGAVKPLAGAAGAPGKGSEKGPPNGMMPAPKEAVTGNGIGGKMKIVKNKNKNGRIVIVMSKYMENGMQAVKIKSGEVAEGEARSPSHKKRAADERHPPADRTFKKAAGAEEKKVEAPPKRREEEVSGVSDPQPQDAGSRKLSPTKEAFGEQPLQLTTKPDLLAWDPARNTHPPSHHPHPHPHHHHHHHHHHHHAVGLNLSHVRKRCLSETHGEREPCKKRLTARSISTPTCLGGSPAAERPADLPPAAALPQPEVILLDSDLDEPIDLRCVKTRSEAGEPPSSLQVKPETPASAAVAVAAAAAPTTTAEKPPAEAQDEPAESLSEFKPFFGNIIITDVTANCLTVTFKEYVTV

CBX6 (human) = target: T3, CBX6 (human) (UniProt O95503)
T3 sequence: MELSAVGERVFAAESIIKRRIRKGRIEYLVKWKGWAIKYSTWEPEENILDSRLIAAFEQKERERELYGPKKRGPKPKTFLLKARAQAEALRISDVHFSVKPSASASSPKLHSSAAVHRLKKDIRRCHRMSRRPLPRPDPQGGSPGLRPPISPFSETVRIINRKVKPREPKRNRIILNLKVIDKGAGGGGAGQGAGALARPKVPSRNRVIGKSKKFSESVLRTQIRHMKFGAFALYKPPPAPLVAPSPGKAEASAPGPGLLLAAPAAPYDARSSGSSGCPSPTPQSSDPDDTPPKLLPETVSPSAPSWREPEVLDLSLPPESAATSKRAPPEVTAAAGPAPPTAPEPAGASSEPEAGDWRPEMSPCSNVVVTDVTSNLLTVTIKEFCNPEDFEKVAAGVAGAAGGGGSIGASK

CBX8 (human) = CBX8 (human) (UniProt Q9HC52)
CSK21 (human) = CSK21 (human) (UniProt P68400)
CSK22 (human) = CSK22 (human) (UniProt P19784)
PCGF3 (human) = target: T4, PCGF3 (human) (UniProt Q3KNV8)
T4 sequence: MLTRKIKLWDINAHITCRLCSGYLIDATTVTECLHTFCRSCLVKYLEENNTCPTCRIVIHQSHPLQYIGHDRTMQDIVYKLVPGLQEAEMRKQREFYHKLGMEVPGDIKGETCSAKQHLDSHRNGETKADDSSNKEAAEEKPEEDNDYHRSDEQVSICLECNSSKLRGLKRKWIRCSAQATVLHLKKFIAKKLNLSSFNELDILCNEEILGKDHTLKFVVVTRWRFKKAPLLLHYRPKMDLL

PCGF5 (human) = PCGF5 (human) (UniProt Q86SE9)
PCGF6 (human) = target: T5, PCGF6 (human) (UniProt Q9BYE7)
T5 sequence: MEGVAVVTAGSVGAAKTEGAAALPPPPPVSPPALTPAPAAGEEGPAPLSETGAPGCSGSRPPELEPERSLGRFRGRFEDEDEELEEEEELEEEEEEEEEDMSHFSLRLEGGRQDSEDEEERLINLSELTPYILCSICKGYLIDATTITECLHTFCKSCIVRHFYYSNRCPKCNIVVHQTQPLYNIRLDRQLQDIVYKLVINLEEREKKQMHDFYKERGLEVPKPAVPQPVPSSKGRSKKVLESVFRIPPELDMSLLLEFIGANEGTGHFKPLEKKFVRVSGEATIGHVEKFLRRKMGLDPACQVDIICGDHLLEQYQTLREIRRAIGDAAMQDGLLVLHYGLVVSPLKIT

RING1 (human) = RING1 (human) (UniProt Q06587)
RING2 (human) = RING2 (human) (UniProt Q99496)
RYBP (human) = target: T6, RYBP (human) (UniProt Q8N488)
T6 sequence: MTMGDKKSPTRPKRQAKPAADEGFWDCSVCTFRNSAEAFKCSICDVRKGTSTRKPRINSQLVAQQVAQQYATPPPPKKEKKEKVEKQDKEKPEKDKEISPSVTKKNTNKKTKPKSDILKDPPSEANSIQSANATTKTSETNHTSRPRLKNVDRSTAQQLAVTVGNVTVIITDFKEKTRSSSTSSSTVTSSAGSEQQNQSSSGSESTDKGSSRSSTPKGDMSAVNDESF

YAF2 (human) = target: T7, YAF2 (human) (UniProt Q8IY57)
T7 sequence: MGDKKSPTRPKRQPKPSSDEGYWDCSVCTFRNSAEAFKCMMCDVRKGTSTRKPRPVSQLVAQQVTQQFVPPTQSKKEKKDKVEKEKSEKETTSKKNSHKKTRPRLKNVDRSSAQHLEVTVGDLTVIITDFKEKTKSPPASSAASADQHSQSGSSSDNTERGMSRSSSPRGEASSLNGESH

- binding (YY1 (human)): no binding
B1: SMBT1 (protein, UniProt Q9UHJ3 1-866)
chain: MNGEQQLDADAGSGMEEVELSWEDYLEETGSTAVPYGSFKHVDTRLQNGFAPGMKLEVAVRTDPETYWVATVITTCEQLLLLRYDGYGEDRRADFWCDIRKADLYPIGWCEQNKKTLEAPEGIRDKVSDWDEFLRQTLIGACSPPVPLLEGLRNGRNPLDLIAPGSRLECQAFQDSLSTWIVTVVENIGGRLKLRYEGLESSDNYEHWLYYLDPFLHHVGWAAQQGYELQPPSAIRHLKNEAEWQEILAKVKEEEEEPLPSYLFKDKQVIGIHTFSVNMKLEAVDPWSPFGISPATVVKVFDEKYFLVEMDDLRPENHARRSFVCHADSPGIFPVQWSLKNGLHISPPPGYPSQDFDWADYLKQCGAEAAPQRCFPPLISEHEFKENMKLEAVNPILPEEVCVATITAVRGSYLWLQLEGSKKPIPECIVSVESMDIFPLGWCETNGHPLSTPRRARVYKQRKIAVVQPEKQVPSSRTVHEGLRNQELNSTESVMINGKYCCPKIYFNHRCFSGPYLNKGRIAELPQCVGPGNCVLVLREVLTLLINAAYKPSRVLRELQLDKDSVWHGCGEVLKAKYKGKSYRATVEIVKTADRVTEFCRQTCIKLECCPNLFGPRMVLDKCSENCSVLTKTKYTHYYGKKKNKRIGRPPGGHSNLACALKKASKRRKRRKNVFVHKKKRSSASVDNTPAGSPQGSGGEDEDDPDEGDDDSLSEGSTSEQQDELQEESEMSEKKSCSSSPTQSEISTSLPPDRQRRKRELRTFSFSDDENKPPSPKEIRIEVAERLHLDSNPLKWSVADVVRFIRSTDCAPLARIFLDQEIDGQALLLLTLPTVQECMDLKLGPAIKLCHHIERIKFAFYEQFAN

- binding (OGT1 (human), O15294): no binding
B2: FOXK2, Q01167 1-660 (protein)
chain: MAAAAAALSGAGTPPAGGGAGGGGAGGGGSPPGGWAVARLEGREFEYLMKKRSVTIGRNSSQGSVDVSMGHSSFISRRHLEIFTPPGGGGHGGAAPELPPAQPRPDAGGDFYLRCLGKNGVFVDGVFQRRGAPPLQLPRVCTFRFPSTNIKITFTALSSEKREKQEASESPVKAVQPHISPLTINIPDTMAHLISPLPSPTGTISAANSCPSSPRGAGSSGYKVGRVMPSDLNLMADNSQPENEKEASGGDSPKDDSKPPYSYAQLIVQAITMAPDKQLTLNGIYTHITKNYPYYRTADKGWQNSIRHNLSLNRYFIKVPRSQEEPGKGSFWRIDPASESKLIEQAFRKRRPRGVPCFRTPLGPLSSRSAPASPNHAGVLSAHSSGAQTPESLSREGSPAPLEPEPGAAQPKLAVIQEARFAQSAPGSPLSSQPVLITVQRQLPQAIKPVTYTVATPVTTSTSQPPVVQTVHVVHQIPAVSVTSVAGLAPANTYTVSGQAVVTPAAVLAPPKAEAQENGDHREVKVKVEPIPAIGHATLGTASRIIQTAQTTPVQTVTIVQQAPLGQHQLPIKTVTQNGTHVASVPTAVHGQVNNAAASPLHMLATHASASASLPTKRHNGDQPEQPELKRIKTEDGEGIVIALSVDTPPAAVREKGVQN

- binding (CBX4 (human)): binds
- binding (CBX6 (human)): binds
- binding (CBX8 (human)): binds
- binding (CSK21 (human)): binds
- binding (CSK22 (human)): binds
- binding (PCGF3 (human)): binds
- binding (PCGF5 (human)): binds
- binding (PCGF6 (human)): binds
- binding (RING1 (human)): binds
- binding (RING2 (human)): binds
- binding (RYBP (human)): binds
- binding (YAF2 (human)): binds
B3: DCAF7 (protein, UniProt P61962 1-342)
chain: MSLHGKRKEIYKYEAPWTVYAMNWSVRPDKRFRLALGSFVEEYNNKVQLVGLDEESSEFICRNTFDHPYPTTKLMWIPDTKGVYPDLLATSGDYLRVWRVGETETRLECLLNNNKNSDFCAPLTSFDWNEVDPYLLGTSSIDTTCTIWGLETGQVLGRVNLVSGHVKTQLIAHDKEVYDIAFSRAGGGRDMFASVGADGSVRMFDLRHLEHSTIIYEDPQHHPLLRLCWNKQDPNYLATMAMDGMEVVILDVRVPCTPVARLNNHRACVNGIAWAPHSSCHICTAADDHQALIWDIQQMPRAIEDPILAYTAEGEINNVQWASTQPDWIAICYNNCLEILRV

Results are given in words; binding and its absence hold for the method and conditions named. In cells and extracts the contact can be indirect. A yes stands for co-enrichment or nearness to the bait. Other partners may have been found. For some assays here: No binding means not detected with the bait. One block for each binder: values may come before it.
